Primary screen of a compound library

Chains of the proteins cited; added tags and fusions are not shown. Residues count along the entry.
UniProt A4I591, 1-473: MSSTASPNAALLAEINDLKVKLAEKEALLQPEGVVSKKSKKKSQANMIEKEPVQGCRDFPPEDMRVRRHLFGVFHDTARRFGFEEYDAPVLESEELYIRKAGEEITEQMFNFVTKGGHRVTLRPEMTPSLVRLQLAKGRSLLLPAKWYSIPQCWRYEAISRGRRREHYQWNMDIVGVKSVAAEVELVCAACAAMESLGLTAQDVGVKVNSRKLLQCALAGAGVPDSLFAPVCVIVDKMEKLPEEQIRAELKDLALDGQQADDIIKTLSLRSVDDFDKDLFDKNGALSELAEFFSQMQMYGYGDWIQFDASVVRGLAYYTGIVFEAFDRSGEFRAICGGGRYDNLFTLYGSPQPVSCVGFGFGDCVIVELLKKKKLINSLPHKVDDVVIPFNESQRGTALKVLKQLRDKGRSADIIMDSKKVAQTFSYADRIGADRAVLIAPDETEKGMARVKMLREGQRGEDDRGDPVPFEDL
UniProt P9WNZ1, whole entry: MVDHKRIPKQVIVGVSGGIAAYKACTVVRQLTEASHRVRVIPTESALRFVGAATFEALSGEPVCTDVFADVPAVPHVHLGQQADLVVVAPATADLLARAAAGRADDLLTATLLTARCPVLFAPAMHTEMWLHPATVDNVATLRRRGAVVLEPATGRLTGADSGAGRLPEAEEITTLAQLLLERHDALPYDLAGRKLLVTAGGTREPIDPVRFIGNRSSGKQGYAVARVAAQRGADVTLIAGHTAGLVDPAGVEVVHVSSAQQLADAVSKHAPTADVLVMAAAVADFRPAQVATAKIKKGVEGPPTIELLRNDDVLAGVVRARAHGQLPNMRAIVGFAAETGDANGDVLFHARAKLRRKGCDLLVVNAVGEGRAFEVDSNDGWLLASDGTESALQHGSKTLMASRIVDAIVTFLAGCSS
UniProt Q8IDJ8, 1-583: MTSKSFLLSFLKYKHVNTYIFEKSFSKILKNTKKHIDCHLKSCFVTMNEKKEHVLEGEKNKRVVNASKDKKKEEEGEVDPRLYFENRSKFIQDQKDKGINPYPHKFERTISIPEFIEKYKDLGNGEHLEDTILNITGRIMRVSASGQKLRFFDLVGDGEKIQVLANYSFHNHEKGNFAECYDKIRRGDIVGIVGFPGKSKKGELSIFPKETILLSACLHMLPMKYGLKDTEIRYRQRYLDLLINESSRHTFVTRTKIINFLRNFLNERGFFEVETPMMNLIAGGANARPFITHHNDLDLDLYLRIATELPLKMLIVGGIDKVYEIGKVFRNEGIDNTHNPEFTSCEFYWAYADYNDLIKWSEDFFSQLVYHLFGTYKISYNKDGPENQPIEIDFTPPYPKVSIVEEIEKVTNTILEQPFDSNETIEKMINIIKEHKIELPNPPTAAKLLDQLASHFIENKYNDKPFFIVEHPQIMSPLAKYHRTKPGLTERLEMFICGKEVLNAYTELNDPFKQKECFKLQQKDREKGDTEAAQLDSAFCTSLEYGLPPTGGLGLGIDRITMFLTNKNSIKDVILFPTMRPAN
UniProt P9WFT3, whole entry: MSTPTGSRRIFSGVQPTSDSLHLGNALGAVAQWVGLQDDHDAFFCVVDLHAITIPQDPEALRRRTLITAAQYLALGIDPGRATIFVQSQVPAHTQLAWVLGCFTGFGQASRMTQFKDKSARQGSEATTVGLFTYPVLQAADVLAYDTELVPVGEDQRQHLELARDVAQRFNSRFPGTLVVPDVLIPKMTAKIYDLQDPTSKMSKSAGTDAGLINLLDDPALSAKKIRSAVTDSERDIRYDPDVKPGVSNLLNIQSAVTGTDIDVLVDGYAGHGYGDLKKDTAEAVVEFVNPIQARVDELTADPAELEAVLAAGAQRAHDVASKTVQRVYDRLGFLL

Results are given as percent effect. How 0% and 100% were set is not recorded. Most values in the screen are low, and negative values occur. The compounds are a random part of those screened. A dash means the value is not listed here; it may have been measured.

LiHisRS: 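Enzyme assay of histidyl-tRNA synthetase; the read-out is not stated. Target: Histidine-tRNA ligase, Leishmania infantum (UniProt A4I591). Compounds at 30 µM. Direction is inferred from retests: higher values go with stronger inhibition. The assay is labelled LdHisRS but filed under L. infantum. Of about 69,000 compounds tested this way, about 410 (0.6%) reached 50% or more in at least one test.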
CoaBC: 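Enzyme assay of CoaBC with a phosphate dye (Biomol Green) read at 650 nm. Target: Coenzyme A biosynthesis protein CoaBC, Mycobacterium tuberculosis (UniProt P9WNZ1). Concentration: 30 µM. Direction is inferred from only a few compounds that gave an IC50; most scored high, so higher reads as stronger inhibition. Most strong results did not repeat in a second test. Size under these conditions: about 67,000 compounds, about 40 of them at 50% or above in at least one test.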
PfKRS1: 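Lysine-tRNA ligase, Plasmodium falciparum 3D7 (UniProt Q8IDJ8). Enzyme assay of the cytosolic lysyl-tRNA synthetase in 384-well plates, read by luminescence. Compounds at 30 µM. Direction is inferred from only a few compounds that gave an IC50; most scored high, so higher reads as stronger inhibition. Size under these conditions: about 69,000 compounds, about 49 of them at 50% or above in at least one test.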
MtTrpRS: 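Enzyme assay of tryptophanyl-tRNA synthetase; the read-out is not stated. Target: Tryptophan-tRNA ligase, Mycobacterium tuberculosis (UniProt P9WFT3). Tested at 10 µM. Direction is not recorded; retested compounds ran higher, which suggests that high means inhibition. Size under these conditions: about 65,000 compounds, about 64 of them at 50% or above in at least one test.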

Compound	LiHisRS	CoaBC	PfKRS1	MtTrpRS
CC(C)Cc1noc(CN2CCOCC2C)n1 (configuration not stated)	-33.33%	0.4854%	-1.165%	1.728%
CCC(C(=O)NC1CCCCC1)n1cccc(OC)c1=O (configuration not stated)	7.042%	7.78%	-1.265%	-3.931%
Nc1nccc(N2CCCC(CO)(CCOc3ccccc3)C2)n1 (configuration not stated)	31.13%	-52.27%	0.6785%	-0.9114%
CC(C)n1[nH]c(=O)c2c1NC(=O)CC2c1ccc(S(C)(=O)=O)cc1 (configuration not stated)	25.97%	2.299%	8.428%	-1.854%
Cc1cccc(NCC(=O)NC2(C#N)CCCC2)c1C(=O)N1CCCC1	26.76%	-	2.93%	0.7064%
Cc1cccc(NC(=O)Cc2cnc3n(C)c(=O)[nH]c(=O)n23)c1	-1.379%	-2.368%	-8.31%	0.7779%
CC(C)(C)OC(=O)N1CCCc2ccc(NCc3ccon3)cc21	26.88%	1.096%	0.3273%	-1.288%
Cn1ccc(C(=O)N2C[C@@H]3CN(CC4CC4)CCO[C@@H]3C2)n1	7.563%	2.114%	3.826%	-0.7333%
CC(C)CC(=O)N1C[C@H]2CCCN(S(=O)(=O)c3ccc(Cl)s3)[C@H]2C1	12.77%	-6.258%	-1.073%	-3.184%
O=C(O)Cn1ccc(=O)c2cc(F)ccc21	-2.5%	1.646%	2.172%	1.356%
CCC(Cn1ccnc1)n1cnc2c(C)csc2c1=O (configuration not stated)	14.29%	-0.7229%	-1.602%	6.019%
COc1cc(C2CC(=O)Nc3c2nc2n3CCCC2)cc2c1OCO2 (configuration not stated)	20%	1.523%	4.548%	2.13%
COc1ncccc1CNc1snc(Cl)c1C#N	19.75%	5.506%	3.493%	2.956%
COc1cccc(CN2CC(O)CN(C(=O)C(C)(C)C)CC2=O)c1OC (configuration not stated)	16.33%	1.211%	-2.738%	-
Cc1nc(NC2(CN3CCCCC3)CCCCC2)c2cnn(C)c2n1	27.71%	8.407%	1.986%	5.356%
CCCN1C[C@H]2CC[C@@H]1CN(c1nnc(C(C)C)s1)C2	-42.86%	12.38%	-0.4706%	2.16%
CC(C)n1ncc2c1NC(=O)CSC2C(C)(C)C (configuration not stated)	11.65%	2.557%	2.601%	4.824%
Cc1ccc(C(=O)NC(C)CN2CCCC2=O)c(=O)[nH]1 (configuration not stated)	9.615%	3.625%	-3.837%	-3.065%
CC(C(=O)N1CCN(C)CC1)n1cc(Br)cn1 (configuration not stated)	-1.724%	-6.005%	1.303%	-3.886%
Cc1ccc(SCCN(C)C(=O)c2cn([C@H]3CC[C@@H](N)CC3)nn2)cc1	6.667%	0.4878%	-0.4035%	2.377%
O=C(NCCCC(=O)N1Cc2ccccc2C1)NCc1nccs1	14.29%	0.9494%	8.712%	-2.726%
CCc1ccc(CN(C(=O)CCn2cc(S(N)(=O)=O)cn2)C2CC2)cc1	5.208%	-0.8929%	4.239%	0.1032%
O=C(CN1CCCCCC1=O)NCC1CCN(c2ccccc2)C1 (configuration not stated)	5.333%	4.959%	0.8484%	-3.578%
CN(C)Cc1nc(C(C)(C)NC(=O)c2nc3ccccc3s2)no1	9.677%	-3.776%	2.712%	-2.004%
N#Cc1ccccc1CN1CCCC(c2nccn2CC2CCC2)C1 (configuration not stated)	15.08%	4.668%	5.228%	0.3734%
Cn1cc(C(=O)N2CC[C@H](N3CCOCC3)[C@H](CCCO)C2)cn1	5.263%	5.882%	2.233%	0.3687%
Cc1cc(C)c(CNC(=O)NCc2nnc3n2CCC3)c(=O)[nH]1	0%	-2.273%	3.039%	6.502%
Cc1cc2c(c(-c3cncc(C(=O)N4CCCC4)n3)c1)OC(CN)C2 (configuration not stated)	7.692%	9.859%	9.767%	1.955%
COc1ccccc1CN1C(=O)O[C@@H]2CN(c3ccccn3)C[C@@H]21	-3.333%	-6.21%	-1.992%	10.61%
O=c1cc(Cn2ccnc2)nc2n1CCCN(S(=O)(=O)C1CC1)C2	19.23%	4.242%	4.335%	-
CN(C)c1nccc(N2CCO[C@H]3CN(Cc4ccsc4)C[C@H]32)n1	15.24%	5.806%	-0.1944%	-2.22%
CC(C)C(=O)N1CCC[C@]2(C(=O)N(C)C)CN(c3ccccn3)C[C@@H]2C1	22.22%	-12.7%	-2.783%	5.231%
CCC1CN(C(=O)COc2ccc(NC(C)=O)cc2)CCO1 (configuration not stated)	0%	-6.21%	0.5682%	2.468%
CCS(=O)(=O)NCCNC(=O)c1cnc(-c2ccccc2)nc1	11.48%	5.579%	1.88%	-0.4397%
CCS(=O)(=O)N1CCC(c2nnc(Cn3cccn3)n2C2CC2)CC1	20.19%	-7.595%	0.3401%	-0.7583%
c1ccc(OCCNCc2cccs2)nc1	15.93%	1.263%	4.646%	4.301%
Cc1nn(C)cc1CNCc1ccc(N(C)C)cc1	16.49%	-4.54%	0.8058%	-
OCC1(Cc2ccc(Cl)cc2)CCN(Cc2cccnc2)CC1	-1.316%	3.738%	-5.608%	0.08496%
O=C(c1cccnc1N1CCOCC1)N1CCCC(n2ccnc2)C1 (configuration not stated)	4%	3.723%	9.762%	-1.887%
CCOCc1nn(CC2CC2)c2c1CN(Cc1ccco1)CC2	5.825%	4.326%	-0.826%	-5.901%
Cc1nn(CC(C)C)c(N(C)C)c1CNCc1cc2ccccc2[nH]1	9.524%	6.287%	4.142%	-0.07825%
CN(C)c1ccc(C(=O)N2CCCC2c2cnn(C)c2)nn1 (configuration not stated)	19.78%	1.829%	-2.044%	2.914%
O=C(NCc1ccccc1)N1Cc2nc(COCC3CC3)oc2C1	20%	7.992%	-2.023%	15.55%
OCCOc1ccc(NCc2cccc3cn[nH]c23)cn1	13.33%	5.61%	0.6236%	2.207%
O=C1CCN(C(=O)CCc2ccc(Cl)cc2Cl)CCN1	20.21%	7.744%	11.26%	1.677%
CCc1ncc2c(n1)CN(C(=O)Cc1cc(OC)cc(OC)c1)C2	2.151%	15.02%	6.488%	-1.107%
Cc1ccc(C(=O)NCCN2CCOCC2)c(=O)[nH]1	8%	-3.719%	-0.3959%	-1.644%
COc1c(F)cc(NC(=O)N2CCC(CSC)C2)cc1F (configuration not stated)	1.961%	-1.35%	-1.27%	-3.372%
Cc1occc1C(=O)N1CCOCC2(CCN(Cc3nccs3)C2)C1 (configuration not stated)	-0.9434%	-1.818%	-2.473%	-3.065%
N#Cc1ccccc1N1CCCN(CC(=O)Nc2ccc(Cl)cn2)CC1	26.67%	-5.785%	0.5995%	4.159%
CC(C)n1nc2c(cc1=O)CN(CC(=O)N(C)c1nccs1)CC2	27.78%	-1.229%	9.591%	-0.9709%
Cc1noc(C)c1CCC(=O)N1CCCC(n2ccnc2C)C1 (configuration not stated)	13.89%	5.159%	7.498%	-6.075%
CSC(C)(C)CNC(=O)NCC[S+]([O-])c1ccccc1 (configuration not stated)	13.7%	6.773%	0.6311%	-3.725%
COc1nc(N2CCN(C(C)=O)CC2)ncc1Br	15%	-0.638%	5.32%	-2.039%
Cc1ccc(Nc2nccc(C3CN(C(C)C)C3)n2)nc1	3.158%	0.2433%	-1.882%	7.246%
Cc1cc(NCCO)nc(-c2ccccc2O)n1	1.124%	5.99%	1.656%	-1.861%
CN(C)CCN1CCOCC2(CCCN(C(=O)c3cccn3C)C2)C1 (configuration not stated)	17.14%	-24.43%	6.69%	-2.278%
CCOc1ccc(CNCCCn2ccnc2)cc1OC	11.67%	-8.351%	5.886%	-8.065%
COc1cccc(CN2CCCC2c2cccc(F)c2)c1OC (configuration not stated)	18.48%	0.6053%	3.93%	0.4666%
Cc1ncncc1C(=O)N1CCCC(n2cccn2)C1 (configuration not stated)	0%	-2.35%	-0.2616%	16.98%
O=C(NCCOCCO)[C@@]12CNC[C@@H]1CN(C1CCCC1)C2	12.82%	0.2012%	4.867%	-3.445%
O=S(=O)(C1CC1)N1CCn2c(Cn3cncn3)cnc2C1	23.08%	8.75%	2.56%	-0.2116%
Cc1ccc(C)c2c(O)cc(CN3CCC(=O)NCC3C)nc12 (configuration not stated)	18.03%	4.604%	5.824%	-2.047%
CC(C)C(NC(=O)NCCNc1ncccn1)c1cccs1 (configuration not stated)	10.43%	2.968%	1.92%	-1.558%
O=c1[nH]cc(N2CCOCC2)c(=O)[nH]1	5.714%	-6.553%	2.039%	6.413%
CC(C)c1ocnc1C(=O)N1CCC(=O)Nc2cccnc21	16.33%	6.889%	1.528%	3.62%
CCOCC(O)CN1CCN(C(=O)c2ccccc2F)CC1 (configuration not stated)	7.692%	2.389%	0.4288%	-3.626%

Measurements from “University of Dundee, Small-Polar-MMV Screening Library” (2021), ChEMBL document CHEMBL3988442.